Data: the supplement of paper PMC7877785
± gives the uncertainty stated by the source. Many of these values have a large error.

Experiment: self-splicing fitness, log relative to wild type (ln ratio); higher = more splicing; Tetrahymena group I intron in knt gene, E. coli kanamycin selection, DiMSum; sequences stand for … in CUCUCU…GGAGGGAAAAGUUAUCAGGCAUGCACCUGGUAGCUAGUCUUUAAACCAAUAGAUUGCAUCGGUUUAAAAGGCAAGACCGUCAAAUUGCGGGAAAGGGGUCAACAGCCGUUCAGUACCAAGUCUCAGGGGAAACUUUGAGAUGGCCUUGCAAAGGGUAUGGUAAUAAGCUGACGGACAUGGUCCUAACCACGCAGCCAAGUCCUAAGUCAACAGAUCUUCUGUUGAUAUGGAUGCAGUUCACAGACUAAAUGUCGGUCGGGGAAGAUGUAUUCUUCUCAUAAGAUAUAGUCGGACCUCUCCUUAAUGGGAGCUAGCGGAUGAAGUGAUGCAACACUGGAGCCGCUGGGAACUAAUUUGUAUGCGAAAGUAUAUUGAUUAGUUUUGGAGUACUCGUGGUCG
Procedure, shortened: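 Six replicate transformations of E. coli BL21(DE3) with a pET-22b(+) library were grown overnight at 37°C or 30°C. The library randomised all eight P1ex-region intron nucleotides, the intron lying in the knt kanamycin-resistance gene, and plates were LB agar with or without 25 μg/mL kanamycin plus 100 μg/mL carbenicillin, 50 μM IPTG and 0.2% rhamnose. Pooled colonies were amplicon-sequenced on an Illumina HiSeq 2500, and fitness is the DiMSum error-weighted combination of wild-type-normalised replicate fold changes, kanamycin versus none.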

Row | Sequence | self-splicing fitness (ln) (37 °C) | self-splicing fitness (ln) (30 °C)
1 | CUCCAGCAAUAUUACGCUGG | -3.71 ± 0.59 | 
2 | CACAAGCAAUAUUACGCCCC | -1.35 ± 0.71 | -2 ± 0.57
3 | AUACAGCAAUAUUACGAAAC |  | -4.34 ± 0.72
4 | UCCUAGCAAUAUUACGUACC |  | -2.36 ± 0.47
5 | UCUCAGCAAUAUUACGACCC |  | -4.29 ± 1.1
6 | CUUAAGCAAUAUUACGAAUU | -0.957 ± 0.17 | -3.26 ± 0.22
7 | UGUGAGCAAUAUUACGCUAC | -3.49 ± 0.52 | 
8 | AGAGAGCAAUAUUACGCCCA |  | -1.04 ± 0.67
9 | GACUAGCAAUAUUACGCGGC | -1.29 ± 0.62 | 
10 | CACGAGCAAUAUUACGAUCU |  | -5.38 ± 1
11 | CCGAAGCAAUAUUACGCCAC |  | -3.48 ± 1.1
12 | CAUCAGCAAUAUUACGCUUC | -0.251 ± 0.12 | -2.2 ± 0.18
13 | UGCUAGCAAUAUUACGAUUC |  | -4.45 ± 0.59
14 | CCCGAGCAAUAUUACGCGCG | -3.21 ± 0.52 | -2.29 ± 0.61
15 | AUGAAGCAAUAUUACGCCGC | -0.276 ± 0.92 | -1.52 ± 0.55
16 | GUUAAGCAAUAUUACGAACC | -3.58 ± 0.73 | -0.0715 ± 0.54
17 | CAAGAGCAAUAUUACGUGAC |  | -4.31 ± 0.73
18 | GGCUAGCAAUAUUACGCCGC | -2.05 ± 0.58 | 
19 | UCAAAGCAAUAUUACGCACC |  | -2.25 ± 0.54
20 | UGGAAGCAAUAUUACGCACC | -0.896 ± 0.84 | -2.4 ± 0.6
21 | CUUGAGCAAUAUUACGGUCC | -2.84 ± 0.61 | 
22 | GGUGAGCAAUAUUACGACCU | -2.52 ± 0.49 | -2.12 ± 0.26
23 | GGCUAGCAAUAUUACGGCCU | -2.06 ± 0.65 | 
24 | GCUUAGCAAUAUUACGGCCA |  | -1.93 ± 0.67

Row | Sequence | self-splicing fitness (ln) (37 °C) | self-splicing fitness (ln) (30 °C)
25 | GUUAAGCAAUAUUACGCGAG | -0.341 ± 0.14 | -0.369 ± 0.1
26 | CUUGAGCAAUAUUACGCUUG |  | -3.76 ± 0.6
27 | GGAGAGCAAUAUUACGUUAC | -2.67 ± 0.53 | -3.41 ± 0.6
28 | CUCCAGCAAUAUUACGGAUC | -1.47 ± 0.14 | -1.86 ± 0.099
29 | UUCGAGCAAUAUUACGGAGC |  | -4.16 ± 0.6
30 | AUAUAGCAAUAUUACGAGGA |  | -3.96 ± 1
31 | AUCAAGCAAUAUUACGUCUU | -0.301 ± 0.073 | -1.86 ± 0.072
32 | AGUAAGCAAUAUUACGCUGC | -3.73 ± 0.73 | 
33 | CUCAAGCAAUAUUACGGCGC |  | -4.52 ± 0.51
34 | UAUAAGCAAUAUUACGCACC | -1.42 ± 0.3 | -1.82 ± 0.3
35 | CAUAAGCAAUAUUACGAUCC | -2.71 ± 0.32 | -3.25 ± 0.23
36 | GUGUAGCAAUAUUACGGUGA | -0.916 ± 0.14 | -1.45 ± 0.11
37 | UCAAAGCAAUAUUACGAACC | -0.879 ± 0.28 | -2.8 ± 0.27
38 | CAGGAGCAAUAUUACGUCGA | -1.96 ± 0.65 | -3.23 ± 1
39 | ACCAAGCAAUAUUACGGACC | -0.214 ± 0.12 | -0.368 ± 0.098
40 | GUUAAGCAAUAUUACGCUAC | -2.39 ± 1.1 | 
41 | UGUUAGCAAUAUUACGGUCC | -1.31 ± 0.63 | 
42 | CCUAAGCAAUAUUACGACAC | -2.03 ± 0.29 | -3.33 ± 0.44
43 | UUUGAGCAAUAUUACGCUUU |  | -3.19 ± 0.58
44 | UCCUAGCAAUAUUACGAGUC | -3.3 ± 0.52 | 
45 | AAGGAGCAAUAUUACGCAGC | -1.21 ± 0.53 | -2.85 ± 0.66
46 | GCGGAGCAAUAUUACGGGUG |  | -3.53 ± 0.54
47 | UAUUAGCAAUAUUACGUGGC |  | -3.66 ± 0.6
48 | AGUAAGCAAUAUUACGCCAC | -2.04 ± 0.77 | 

Row | Sequence | self-splicing fitness (ln) (37 °C) | self-splicing fitness (ln) (30 °C)
49 | UUCGAGCAAUAUUACGUAUU |  | -4.02 ± 0.59
50 | CCGCAGCAAUAUUACGGCGC |  | -2.21 ± 0.51
51 | GGAUAGCAAUAUUACGAUGG | -2.43 ± 0.54 | 
52 | CCUAAGCAAUAUUACGGAUC | -2.09 ± 0.58 | -4.74 ± 0.58
53 | AGUGAGCAAUAUUACGAAAU |  | -3.07 ± 0.61
54 | AGGGAGCAAUAUUACGCAUG | -2.9 ± 0.74 | -2.09 ± 1.4
55 | UGCGAGCAAUAUUACGCAAC | -2.13 ± 0.55 | 
56 | AUGGAGCAAUAUUACGAAAA |  | -2.65 ± 1.1
57 | CGCGAGCAAUAUUACGAAUC | -2.5 ± 0.79 | 
58 | CUUGAGCAAUAUUACGGUGA | -2 ± 0.25 | -3.34 ± 0.27
59 | AACGAGCAAUAUUACGGUAC |  | -4.66 ± 0.51
60 | UUAAAGCAAUAUUACGGGGU |  | -4.99 ± 0.51
61 | UGAAAGCAAUAUUACGAAGC |  | -2.65 ± 0.63
62 | CAUUAGCAAUAUUACGCGGC | -1.8 ± 0.28 | -3.98 ± 0.28
63 | GGCAAGCAAUAUUACGCCGC | -1.86 ± 0.58 | -2.09 ± 1
64 | CGGGAGCAAUAUUACGGUUG | -2.63 ± 0.52 | 
65 | UCUGAGCAAUAUUACGUAGC |  | -4.87 ± 1
66 | UAACAGCAAUAUUACGUUUA | -0.563 ± 0.071 | -0.893 ± 0.063
67 | CGUUAGCAAUAUUACGCUCC | -0.304 ± 0.93 | -1.81 ± 0.68
68 | GGGGAGCAAUAUUACGCUGC | -2.67 ± 1.1 | 
69 | CAUUAGCAAUAUUACGUCGC | -2.58 ± 0.54 | 
70 | UUGGAGCAAUAUUACGGUGC | -3.52 ± 0.73 | 
71 | AGGGAGCAAUAUUACGAGCU | -2.55 ± 0.54 | 
72 | UCAUAGCAAUAUUACGCCAA | -1.71 ± 0.87 | 

Row | Sequence | self-splicing fitness (ln) (37 °C) | self-splicing fitness (ln) (30 °C)
73 | UAGUAGCAAUAUUACGGAGC | -2.67 ± 0.62 | 
74 | UAUUAGCAAUAUUACGAGGA | -1.54 ± 0.18 | -2.33 ± 0.19
75 | CUGGAGCAAUAUUACGUUCC | -0.171 ± 0.73 | -3.21 ± 0.62
76 | GGGAAGCAAUAUUACGCCGG | -1.71 ± 0.55 | 
77 | UUUGAGCAAUAUUACGAUCG | -1.81 ± 0.29 | -2.23 ± 0.23
78 | CGAUAGCAAUAUUACGCACU | 0.174 ± 0.14 | -1.12 ± 0.14
79 | GCGGAGCAAUAUUACGGUAC |  | -1.39 ± 0.63
80 | UCCCAGCAAUAUUACGCAAG | -2.69 ± 0.21 | -3.45 ± 0.16
81 | GUAUAGCAAUAUUACGAUGG | -0.958 ± 0.24 | -3.43 ± 0.35
82 | UUUGAGCAAUAUUACGAGGC | -4.08 ± 0.59 | 
83 | GGUUAGCAAUAUUACGGACU |  | -3.09 ± 0.54
84 | UCGUAGCAAUAUUACGCGCC | -1.65 ± 0.69 | 
85 | UAUUAGCAAUAUUACGCUGA | -2.4 ± 0.64 | -1.66 ± 0.75
86 | GUUUAGCAAUAUUACGUGAC |  | -1.94 ± 0.69
87 | AACUAGCAAUAUUACGUUGU | -2.29 ± 0.12 | -3.51 ± 0.13
88 | CUAUAGCAAUAUUACGAGUU | -0.864 ± 0.18 | -3.04 ± 0.16
89 | CUCCAGCAAUAUUACGCCCA | -2.94 ± 0.76 | -3.06 ± 1.1
90 | CAUGAGCAAUAUUACGGGAU | -1.53 ± 0.55 | 
91 | ACGAAGCAAUAUUACGCUUG | -0.259 ± 0.098 | -1.4 ± 0.086
92 | GCGUAGCAAUAUUACGCAUG |  | -4.34 ± 0.52
93 | GUGGAGCAAUAUUACGGUGG | -2.5 ± 0.23 | -3.76 ± 0.23
94 | GCCAAGCAAUAUUACGGCCC | -1.57 ± 0.22 | -2.13 ± 0.2
95 | CUGCAGCAAUAUUACGUUCC |  | -3.65 ± 0.55
